Series [1] is described as follows: solution-phase peptide synthesis. To be noted: coupling step.
Series [2] is described as follows: general procedure: solution-phase peptide synthesis. To be noted: late stage modification step.

In series [1], “Benzyl(2S,5R,8R,11S)-2-allyl-11-(4-allyloxybenzyl)-3,6,9,12-tetraaza-8-(4-[tert-butoxycarboxamido]butyl)-5-([{2,2,5,7,8-pentamethyl-3,4-dihydro-2H-6-chromenylsulfonamido}guanidino]propyl)-4,7,10,13-tetraoxotetradecanoate” gave a step yield of 85%.
For “Benzyl(2S,5R,8R,11S)-2-allyl-8-(4-aminobutyl)-11-(4-[9-anthracenyl]benzyl)-3,6,9,12-tetraaza-5-(3-guanidinopropyl)-4,7,10,13-tetraoxotetradecanoate”, the step yield in series [2] was determined as 88%.
“Benzyl(2S,5R,8R,11S)-2-allyl-11-(4-allyloxybenzyl)-8-(4-aminobutyl)-3,6,9,12-tetraaza-5-(3-[guanidino]propyl)-4,7,10,13-tetraoxotetradecanoate hydrochloride”: in series [2] (hydrochloride), the step yield turned out to be 82%.
For the substance “Benzyl(2S,5R,8R,11S)-2-allyl-8-(4-aminobutyl)-3,6,9,12-tetraaza-5-(3-guanidinopropyl)-4,7,10,13-tetraoxo-11-(4-[9-phenanthrenyl]benzyl)tetradecanoate”, in series [2], the step yield is listed as 79%.
“Benzyl(2S,5R,8R,11S)-2-allyl-11-(4-[9-anthracenyl]benzyl)-3,6,9,12-tetraaza-8-(4-[tert-butoxycarboxamido]butyl)-5-([{2,2,5,7,8-pentamethyl-3,4-dihydro-2H-6-chromenylsulfonyl}guanidino]propyl)-4,7,10,13-tetraoxotetradecanoate” showed a step yield in series [1] of 36%.

The values above are taken from patent publication US8039430B2 (University of Wollongong, priority 2005, dated 2011).
